These are yes or no findings as the source states them, for the method shown. Binding seen in cells or lysates may run through a third protein. Binding can be weak; no strength is given.
Molecular target: HA-RAB1B (Ras-related protein Rab-1B) (pig (cDNA of PAMs)) (UniProt Q06AU7)
Test: co-IP

Amino acid sequences for entries named in this document (tags omitted). A change or cut given only in a name is not applied to a line headed by its entry.
UniProt Q06AU7: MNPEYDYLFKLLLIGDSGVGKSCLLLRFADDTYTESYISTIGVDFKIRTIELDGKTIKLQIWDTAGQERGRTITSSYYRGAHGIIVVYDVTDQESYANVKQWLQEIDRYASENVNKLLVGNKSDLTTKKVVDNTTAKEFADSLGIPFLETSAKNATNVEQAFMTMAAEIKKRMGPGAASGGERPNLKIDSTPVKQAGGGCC
UniProt A0A287AWP2: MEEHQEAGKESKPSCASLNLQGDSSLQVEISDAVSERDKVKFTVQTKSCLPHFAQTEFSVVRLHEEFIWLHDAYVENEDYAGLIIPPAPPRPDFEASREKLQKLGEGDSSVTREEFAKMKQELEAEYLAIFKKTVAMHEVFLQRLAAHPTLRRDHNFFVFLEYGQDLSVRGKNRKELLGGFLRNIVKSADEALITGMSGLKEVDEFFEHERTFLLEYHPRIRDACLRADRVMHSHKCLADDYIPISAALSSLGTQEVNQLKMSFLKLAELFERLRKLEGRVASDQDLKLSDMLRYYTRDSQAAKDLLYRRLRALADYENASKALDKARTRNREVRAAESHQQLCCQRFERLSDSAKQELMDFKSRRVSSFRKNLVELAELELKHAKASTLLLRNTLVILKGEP

## Myc-SNX32 (sorting nexin 32) (from UniProt A0A287AWP2)
  binding: binds
